Results published in PubChem BioAssay AID493014 (National Center for Advancing Translational Sciences (NCATS), 2011).
Screen size: about 340,000 compounds; about 170 (0.05%) were called active. Inconclusive results, whose numbers are uncertain, are shown with a selection of clear calls. Calls come from the whole dose curve; as a rule, active = well fitted inhibition curve with a large enough effect in the signal ratio, with a control signal flat (not every such curve was filed as active); inconclusive = small, poorly fitted or top-dose-only effect, or effect the other way, or a change in a side signal; inactive = flat fitted curve, though single readings scatter; the % refers to the signal ratio. Where the call is inconclusive, the potency comes from a doubtful curve fit.

Assay: qHTS Assay to Find Inhibitors of Chronic Active B-Cell Receptor Signaling;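 for activity change, negative = inhibition: plate controls were basal doxycycline-induced cells for no effect and cells given 10 µM MG132 for full effect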
Conditions: ABC-DLBCL IkBa-CBG/CBR reporter, luminescence ratio (green luciferase fused to IkBa over red control in TMD8 lymphoma cells), 4 h; activity change, negative = inhibition: at 46.1 µM (top of the series)
In short: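 Compounds up to 46 uM were incubated four hours with TMD8 cells whose green CBG68 luciferase is fused to IkappaBalpha; red CBR luminescence normalised the signal, and concentration-effect curves were fitted to fusion, red and ratio data.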
Potency is the fitted concentration of half-maximal effect.

| Structure (SMILES) | Potency | activity change, negative = inhibition |
| --- | --- | --- |
| COc1cccc(NC(=O)CN(C)C(=O)c2ccc(OCc3ccccc3)c(OC)c2)c1 | inconclusive: 20.6 µM [rising, partial curve, poor fit] |  |
| Cc1ccccc1N(CC(=O)N/N=C/c1ccc(N(C)C)cc1)C(=O)c1ccccc1 | inconclusive: 23.1 µM [falling, partial curve] |  |
| COC(=O)c1c(C#N)c(N)nc2c1CCC2 | inconclusive: 1.46 µM [rising, full curve, poor fit] |  |
| Nc1ccc(OCc2ccccc2)cc1 | inconclusive: 4.61 µM [falling, full curve] |  |
| CSc1ccccc1C(=O)N1CCCC(CCC(=O)NCc2ccc(F)c(F)c2)C1 (configuration not stated) |  | inconclusive: -0.444% |
| CCN(CC)C(=O)[C@H]1C[C@H](CC(=O)NCCN2CCOCC2)C(=O)N2CCc3c([nH]c4cc(-c5ccco5)ccc34)[C@]12C |  | inactive: -0.607% |
| O=C(NCCN1CCN(c2ccccc2Cl)CC1)Nc1ccccc1 |  | inconclusive: 1.21% |
| S=C(Nc1ccc(Cl)cc1Cl)Nc1ccccc1Oc1ccccc1 |  | inactive: 5.84% |
| CCOC(=O)c1ccc(S(=O)(=O)N2CCN(C3CCCC3)CC2)cc1 | inconclusive: 5.62 µM [rising, single point] |  |
| C=CCn1c(SCC(=O)Nc2cc(C)c(Cl)cc2OC)nnc1-c1ccco1 |  | inconclusive: -0.196% |
| O=C1N[C@H](Cc2ccccc2)COC(=O)[C@H](Cc2ccc(F)cc2)CC/C=C/C[C@H]1CC(=O)N(CCO)Cc1ccccc1 |  | inconclusive: -2.01% |
| CC(=O)n1cc([C@@H]2C=C(C(=O)Nc3ccccc3)O[C@H](OCCCCO)C2)c2ccccc21 | inconclusive: 31.6 µM [rising, single point] |  |
| O=C(NCCc1cccnc1)c1cc(COc2ccc(F)cc2F)on1 |  | inactive: -13.1% |
| CCC(C)(C)NC(=O)C(c1ccc(C)cc1)N(CC1CCCO1)C(=O)c1csnn1 (configuration not stated) |  | inactive: 3.47% |
| Cc1ccc2[nH]c(C)c(/C=C/c3cc[n+](C)cc3)c2c1 |  | inconclusive: 1.83% |
| Cc1ccc(/C=N/NC(=O)c2c[nH]c3ccccc23)o1 | inconclusive: 23.1 µM [falling, partial curve] |  |
| Cc1cc(Nc2ccccc2)c2c([N+](=O)[O-])ccc(C)c2n1 |  | inconclusive: 13.9% |
| CCN1C(=O)[C@H]2[C@H]3CN=C(SCc4ccc(Cl)cc4)N3[C@@](C)(C(=O)OC)[C@H]2C1=O |  | inactive: 8.32% |
| O=C(COC(=O)CNC(=O)c1ccc(Cl)cc1)Nc1ccc2c(c1)OCCO2 |  | inactive: 0.472% |
| C/C(=N\NC(=S)NCc1ccccc1)c1ccccc1 |  | inconclusive: -14.5% |
| COc1ccc(C(=O)NC2CCCc3ccccc32)cc1[N+](=O)[O-] (configuration not stated) |  | inconclusive: -0.367% |
| FC(F)(F)c1cc(-c2ccccc2)nc(N2CCCCCC2)n1 |  | inconclusive: 2.16% |
| Cc1cc(C(=O)O)ccc1-n1c(C)cc(C=C2C(=O)c3ccccc3C2=O)c1C |  | inconclusive: -0.464% |
| COc1cc(O)c(C(C)=O)c(CC(=O)O)c1 |  | inactive: 0.64% |
| COc1cc(OC)cc(C(=O)NC(C)c2cnn(-c3ccccc3C)c2C)c1 (configuration not stated) |  | inconclusive: -0.914% |
| CN(CC(=O)NC1CCCCCCC1)S(=O)(=O)c1cccc2cccnc12 |  | inconclusive: -0.121% |

| Structure (SMILES) | Potency | activity change, negative = inhibition |
| --- | --- | --- |
| Cc1cccn2c(=O)c3cc(C(=O)NC4CCCC4)sc3nc12 |  | inconclusive: 6.93% |
| COc1ccc(C(=O)NCC(=O)OCC(=O)c2ccc(Cl)cc2)cc1OC |  | inconclusive: -5.33% |
| COc1ccc(-c2nc(C#N)c(N3CCc4ccccc4C3)o2)cc1OC |  | inactive: 1.41% |
| O=C(CSc1nc2ccccc2[nH]1)Nc1ccc(F)cc1 |  | inconclusive: -25% |
| CCN(CC)C(=O)Cn1ccc(NC(C)=O)nc1=O |  | inconclusive: 2.42% |
| Cc1nc2c(C(=O)N3CCN(c4ccccn4)CC3)cnn2c(C)c1Cc1cccc(Cl)c1 |  | inactive: 2.78% |
| Cc1cccc(N2CCN(C(=O)Cc3c(C(=O)O)c(C)cn3C)CC2)c1C |  | inactive: -0.338% |
| S=C(NCc1ccccc1)NCc1cccc(CNC(=S)NCc2ccccc2)c1 |  | inactive: 0.767% |
| O=C(O)c1cc2nccc(-c3ccco3)n2n1 |  | inconclusive: 1.22% |
| COc1cccc(/C=N/NC(=O)Cn2nc([N+](=O)[O-])cc2C)c1 |  | inconclusive: -23.1% |
| C=CCn1c(COc2ccccc2)nnc1SCC(=O)N/N=C/c1ccc(C)cc1 |  | inactive: 1.95% |
| COc1ccc(CNCC(O)(c2ccccc2)c2ccc(F)cc2)cc1OC (configuration not stated) | inconclusive: 22.4 µM [falling, partial curve, poor fit] |  |
| COc1ccccc1C(=O)C1CCCN(C(=O)c2cn3cc(Cl)ccc3n2)C1 (configuration not stated) | inconclusive: 35.5 µM [falling, single point] |  |
| CCOc1ccc(N(CC(=O)NCc2ccc(F)cc2)S(=O)(=O)c2c(C)noc2C)cc1 |  | inconclusive: -14.4% |
| c1ccc(-c2cc(-c3nn4c(-c5ccco5)nnc4s3)c3ccccc3n2)cc1 |  | inconclusive: 24.5% |
| C/C=C(/C)C(=O)O[C@@H]1[C@H](OC(C)=O)c2c(ccc3ccc(=O)oc23)OC1(C)C |  | inactive: -0.132% |
| C(=N\Nc1ccc2nncn2n1)/c1ccco1 |  | inactive: 8.14% |
| COCc1cc(C)nc2sc(C(=O)Nc3cccc(OC)c3)c(N)c12 | inconclusive: 22.4 µM [falling, single point] |  |
| O=C(O)c1oc2ccccc2c1CSc1ccc(Cl)cc1 |  | inconclusive: 14.9% |
| COc1ccc(/C=N/NC(=O)C(C)n2nnc3ccccc32)cc1OC (configuration not stated) | inconclusive: 1.46 µM [falling, full curve, poor fit] |  |
| CCOC(=O)c1[nH]c(C)c(C(=O)N(C)C)c1C |  | inconclusive: 0.696% |
| Cc1ccc(O)c(-c2[nH]ncc2C(=O)c2ccc(Br)cc2)c1 |  | inconclusive: -3.42% |
| Cc1c(C(=O)N2CCN(Cc3ccccc3)CC2)sc2ncnc(N3CCOCC3)c12 |  | inconclusive: -4.71% |
| COc1ccc2c(C)c(C(=O)O)oc2c1 | inconclusive: 0.82 µM [rising, full curve] |  |
| Cn1ccnc1SCC(=O)N(C1CCCCC1)C1CCCCC1 |  | inconclusive: 10.5% |
| CCOC(=O)N1CCN(C(=O)/C=C/c2ccc(C(C)(C)C)cc2)CC1 |  | inconclusive: 1.91% |

Part of the list above, as tab-separated lines.
Structure (SMILES)	Potency	activity change, negative = inhibition
CCOC(=O)c1ccc(S(=O)(=O)N2CCN(C3CCCC3)CC2)cc1	inconclusive: 5.62 µM [rising, single point]	
C=CCn1c(SCC(=O)Nc2cc(C)c(Cl)cc2OC)nnc1-c1ccco1		inconclusive: -0.196%
